These results are taken from paper PMC10665321.

Chains of the proteins cited; added tags and fusions are not shown. Residues count along the entry.
UniProt P08207: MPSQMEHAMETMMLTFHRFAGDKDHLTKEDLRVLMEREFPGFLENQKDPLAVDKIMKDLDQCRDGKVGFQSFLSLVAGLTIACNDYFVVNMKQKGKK
UniProt Q01097, residues 27-1482: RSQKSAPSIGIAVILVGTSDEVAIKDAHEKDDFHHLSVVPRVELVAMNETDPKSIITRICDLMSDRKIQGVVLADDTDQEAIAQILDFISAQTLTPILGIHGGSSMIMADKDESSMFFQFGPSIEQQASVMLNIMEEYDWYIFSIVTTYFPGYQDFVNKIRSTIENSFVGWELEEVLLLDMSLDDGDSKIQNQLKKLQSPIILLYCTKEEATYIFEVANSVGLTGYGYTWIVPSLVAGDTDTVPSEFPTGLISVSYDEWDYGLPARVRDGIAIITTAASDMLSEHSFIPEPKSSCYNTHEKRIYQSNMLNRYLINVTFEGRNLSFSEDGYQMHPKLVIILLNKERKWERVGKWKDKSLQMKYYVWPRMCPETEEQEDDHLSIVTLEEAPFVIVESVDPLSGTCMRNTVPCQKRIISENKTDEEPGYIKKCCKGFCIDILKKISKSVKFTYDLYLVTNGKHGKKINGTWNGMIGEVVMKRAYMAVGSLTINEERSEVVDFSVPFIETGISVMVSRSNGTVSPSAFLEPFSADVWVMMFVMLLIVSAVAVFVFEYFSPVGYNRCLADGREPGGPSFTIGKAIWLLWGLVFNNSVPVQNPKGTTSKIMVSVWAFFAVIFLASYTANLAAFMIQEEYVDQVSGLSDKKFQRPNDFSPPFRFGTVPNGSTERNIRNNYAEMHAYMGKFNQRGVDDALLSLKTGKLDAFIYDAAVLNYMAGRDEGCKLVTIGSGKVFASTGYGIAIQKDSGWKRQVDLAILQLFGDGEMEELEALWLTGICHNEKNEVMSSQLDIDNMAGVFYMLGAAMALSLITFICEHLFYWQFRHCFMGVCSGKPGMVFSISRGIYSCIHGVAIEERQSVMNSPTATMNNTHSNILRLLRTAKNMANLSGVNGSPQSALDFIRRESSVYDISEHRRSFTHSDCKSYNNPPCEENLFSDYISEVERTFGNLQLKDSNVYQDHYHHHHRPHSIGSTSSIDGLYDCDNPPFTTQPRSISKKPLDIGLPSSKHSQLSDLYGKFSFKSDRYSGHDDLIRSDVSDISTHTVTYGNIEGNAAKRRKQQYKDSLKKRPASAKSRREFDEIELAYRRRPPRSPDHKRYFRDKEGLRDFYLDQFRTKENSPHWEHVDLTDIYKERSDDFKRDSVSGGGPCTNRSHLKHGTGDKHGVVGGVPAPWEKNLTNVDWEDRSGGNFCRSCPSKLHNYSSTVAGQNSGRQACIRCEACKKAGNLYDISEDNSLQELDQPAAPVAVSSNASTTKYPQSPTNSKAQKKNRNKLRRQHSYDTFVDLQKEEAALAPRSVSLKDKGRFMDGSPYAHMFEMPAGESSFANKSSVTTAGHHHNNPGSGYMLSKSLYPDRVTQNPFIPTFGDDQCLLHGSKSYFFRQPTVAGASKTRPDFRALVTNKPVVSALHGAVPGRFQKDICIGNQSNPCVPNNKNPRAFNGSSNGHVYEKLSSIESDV

This assay deals with p11 (S100A10) (mouse (endogenous in DRN)) (UniProt P08207). In words: co-IP; protein extracted from mouse DRN incubated with primary antibodies or control IgG overnight at 4 °C, protein A/G magnetic beads; immunoblotting.

No constants are given. Whether binding was seen depends on the method and setting. In cells and extracts the contact can be indirect. Some binding calls cover weakened binding; strength is not graded here.

In the case of “GluN2B (from UniProt Q01097 27-1482) (receptor)”, the binding result is listed as “binds”. With “GluN2A (from UniProt P35436 23-1464) (receptor)”, the binding entry is recorded as “binds”.
